From article PMC7864061
Results are given in words; binding and its absence hold for the method and conditions named. Binding seen in cells or lysates may run through a third protein. Some binding calls cover weakened binding; strength is not graded here. Tags and fused reporters may be left off the sequences shown.

The chains behind the UniProt entries cited, without tags or fusion partners. Residues count along the entry.
UniProt P47871, residues 26-477: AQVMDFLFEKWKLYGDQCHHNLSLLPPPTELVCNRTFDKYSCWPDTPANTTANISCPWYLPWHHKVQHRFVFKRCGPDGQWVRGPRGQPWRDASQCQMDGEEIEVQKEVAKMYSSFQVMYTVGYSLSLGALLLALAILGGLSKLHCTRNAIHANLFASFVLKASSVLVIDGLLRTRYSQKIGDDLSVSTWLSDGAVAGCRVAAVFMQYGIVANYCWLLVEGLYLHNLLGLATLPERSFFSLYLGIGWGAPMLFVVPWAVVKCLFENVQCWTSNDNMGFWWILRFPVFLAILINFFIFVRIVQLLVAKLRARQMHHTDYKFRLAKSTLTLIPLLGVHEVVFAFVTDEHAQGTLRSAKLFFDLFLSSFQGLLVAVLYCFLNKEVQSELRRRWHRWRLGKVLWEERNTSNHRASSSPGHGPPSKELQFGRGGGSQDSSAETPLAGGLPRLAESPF

B1: signal-transducing adaptor molecule-binding protein (STAMBP) (enzyme, UniProt O95630 1-424)
chain: MSDHGDVSLPPEDRVRALSQLGSAVEVNEDIPPRRYFRSGVEIIRMASIYSEEGNIEHAFILYNKYITLFIEKLPKHRDYKSAVIPEKKDTVKKLKEIAFPKAEELKAELLKRYTKEYTEYNEEKKKEAEELARNMAIQQELEKEKQRVAQQKQQQLEQEQFHAFEEMIRNQELEKERLKIVQEFGKVDPGLGGPLVPDLEKPSLDVFPTLTVSSIQPSDCHTTVRPAKPPVVDRSLKPGALSNSESIPTIDGLRHVVVPGRLCPQFLQLASANTARGVETCGILCGKLMRNEFTITHVLIPKQSAGSDYCNTENEEELFLIQDQQGLITLGWIHTHPTQTAFLSSVDLHTHCSYQMMLPESVAIVCSPKFQETGFFKLTDHGLEEISSCRQKGFHPHSKDPPLFCSCSHVTVVDRAVTITDLR
B2: ubiquitin-specific protease 33 (USP33) (enzyme, UniProt Q8TEY7 1-942)
chain: MTGSNSHITILTLKVLPHFESLGKQEKIPNKMSAFRNHCPHLDSVGEITKEDLIQKSLGTCQDCKVQGPNLWACLENRCSYVGCGESQVDHSTIHSQETKHYLTVNLTTLRVWCYACSKEVFLDRKLGTQPSLPHVRQPHQIQENSVQDFKIPSNTTLKTPLVAVFDDLDIEADEEDELRARGLTGLKNIGNTCYMNAALQALSNCPPLTQFFLDCGGLARTDKKPAICKSYLKLMTELWHKSRPGSVVPTTLFQGIKTVNPTFRGYSQQDAQEFLRCLMDLLHEELKEQVMEVEEDPQTITTEETMEEDKSQSDVDFQSCESCSNSDRAENENGSRCFSEDNNETTMLIQDDENNSEMSKDWQKEKMCNKINKVNSEGEFDKDRDSISETVDLNNQETVKVQIHSRASEYITDVHSNDLSTPQILPSNEGVNPRLSASPPKSGNLWPGLAPPHKKAQSASPKRKKQHKKYRSVISDIFDGTIISSVQCLTCDRVSVTLETFQDLSLPIPGKEDLAKLHSSSHPTSIVKAGSCGEAYAPQGWIAFFMEYVKRFVVSCVPSWFWGPVVTLQDCLAAFFARDELKGDNMYSCEKCKKLRNGVKFCKVQNFPEILCIHLKRFRHELMFSTKISTHVSFPLEGLDLQPFLAKDSPAQIVTYDLLSVICHHGTASSGHYIAYCRNNLNNLWYEFDDQSVTEVSESTVQNAEAYVLFYRKSSEEAQKERRRISNLLNIMEPSLLQFYISRQWLNKFKTFAEPGPISNNDFLCIHGGVPPRKAGYIEDLVLMLPQNIWDNLYSRYGGGPAVNHLYICHTCQIEAEKIEKRRKTELEIFIRLNRAFQKEDSPATFYCISMQWFREWESFVKGKDGDPPGPIDNTKIAVTKCGNVMLRQGADSGQISEETWNFLQSIYGGGPEVILRPPVVHVDPDILQAEEKIEVETRSL

Target: glucagon receptor GCGR-MYC-FLAG (UniProt P47871)
Experiment: co-IP; GCGR-MYC-FLAG immunoprecipitated with anti-FLAG M2 affinity beads from lysates of stably transfected HEK-293 cells (serum-starved 1 h, unstimulated or 200 nM glucagon for the indicated times); lysis buffer 50 mM HEPES pH 7.5, 2 mM EDTA, 250 mM NaCl, 10% glycerol, 0.5% IGEPAL CA-630, 10 mM N-ethylmaleimide; overnight at 4 °C; eluates immunoblotted for the deubiquitinases

| Binder | binding |
| --- | --- |
| B1 | binds |
| B2 | binds |
